One sequence from patent publication US20250152677 can be followed below.

By UniProt entry, the sequences of proteins in these tests, tags left out.
UniProt Q9NQB0, whole entry: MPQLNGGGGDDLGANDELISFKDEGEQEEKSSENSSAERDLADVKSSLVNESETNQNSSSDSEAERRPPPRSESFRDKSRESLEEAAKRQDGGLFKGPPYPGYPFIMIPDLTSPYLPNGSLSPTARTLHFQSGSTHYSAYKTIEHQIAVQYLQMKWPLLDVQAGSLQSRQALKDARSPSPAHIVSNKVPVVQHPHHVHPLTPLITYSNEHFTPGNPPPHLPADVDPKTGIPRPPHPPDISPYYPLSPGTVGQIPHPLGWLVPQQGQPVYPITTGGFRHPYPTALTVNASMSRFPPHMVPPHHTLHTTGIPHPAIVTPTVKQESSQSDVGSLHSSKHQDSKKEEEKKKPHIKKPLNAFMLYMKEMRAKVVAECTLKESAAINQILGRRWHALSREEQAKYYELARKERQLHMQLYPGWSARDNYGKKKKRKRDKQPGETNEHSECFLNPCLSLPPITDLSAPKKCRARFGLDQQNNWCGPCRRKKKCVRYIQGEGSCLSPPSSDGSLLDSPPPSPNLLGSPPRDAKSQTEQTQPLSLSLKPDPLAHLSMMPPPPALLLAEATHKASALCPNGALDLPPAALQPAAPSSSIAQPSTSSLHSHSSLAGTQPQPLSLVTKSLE

Construct, isoform or probe ends are uncertain for at least one entry. Results from cells or extracts need not show a direct contact.

The target in this series is TCF-4 (TCF7L2) (Homo sapiens) (UniProt Q9NQB0). As to the kind of experiment: binding assay. The settings on record: CITED public ChIP-seq GSM782122, HepG2, chr14:101,283,029-101,284,356, protein in cells, protein details: endogenous.

With “ATTGCTTGAGCCCAGGAGTTTGAGGCTGCAATGAACCATGATTGCACCACTGTACTCCAGCCTGGGCAACAAAGTGAGATCTCGTCCCAAAAAAAGATAAATAAAAAGAAAATAGTCTGTTTTAGTCTGTATTCAGAGCAAGCCTGTGGCATGAATATCAACTTTCCTGTTTTTGCAGGGGGGAAACCGAGGCCTGGCAGGGCGAAGTGGGCAGGACCCTTCTCAAAGGGCCAGGGTGCTAGTGGCCACTGTCCTTCCCCCACCACCTCCACGCCCCCATCCCCCCACAGTTCACGACTGCAAAGGCAGCTTTAGGTTGGGAGCTGGTGGAGCAAAAAGGCCGTTCAAAGGCAGCCTTCGTTTGCTTTTCCTTATCATCACATGTGCAAGGGCAGCTCCGTTTACCTAGAGGCAGGCGTCTTTGAGCTCATCCTTTCCGCAAACACCTAAAGGGTATGTTGAACATTTGAGCCCCTGTCTCAGAGGGCGCAGCGTTTGCACAACATAAGCCCTGGCGGCTCGGTAGACGGGTATGGGGGGTAGACTCAGGTTTCTGGATGAAGCACTGAGAGCCAAGGTGACCTGCGGTGTTCCGGGATGACCTTTGGTGACCTTCGGTCCTGTCCAGTGACCTGGGGTGGTGAAGTTACCCCAAATGGGAGGAAATGAACTCTGGGTGGGCGAAGGCTGCAGGACGTGTTGGCATGATGGCTGTAGAAAGTGCACACCAGGGCTGGTGTGGAGGGCGCCTCGGCTGCTCTGAGAATCTTCCACTACCCCGGCCTGGGATTCCCAGGAAAGGCTGGTGGTGGAGGCCAGAGAGGCTCA (double strand) [human beta-catenin/TCF-4 binding site upstream of MEG3]”, the binding result is reported as “binds”.
